Data taken from PubChem BioAssay AID488913 (National Center for Advancing Translational Sciences (NCATS), 2010).
Inconclusive results, whose numbers are uncertain, are shown with a selection of clear calls. Where the call is inconclusive, the potency comes from a doubtful curve fit. Activity calls are given as the source filed them. The call rests on the fitted dose curve; in most records, active means well fitted inhibition curve with a large enough effect; inconclusive means small, poorly fitted or top-dose-only effect, or effect the other way; inactive means no such curve, though single readings can be large or run the other way.

assay: Confirmation Concentration-Response Assay for lipid storage modulators: for probe SAR; settings: Drosophila S3 cells, BODIPY lipid droplet fluorescence, 18-24 h; activity change, negative = lipid storage inhibition: at 46.1 µM (top of the series)
Description: NIH Molecular Libraries Probe Production Centers Network [MLPCN] NIH Chemical Genomics Center [NCGC] MLPCN Grant: 1 R03 MH085686-01 Assay Submitter (PI): Beller, Mathias; Max-Planck-Institut fur Biophysikalische Chemie NCGC Assay Overview: Storing lipids as a reservoir for energy or the anabolism of elementary metabolites is a common feature of probably all cells and is conserved from bacteria to humans. The universal cellular lipid storage organelle is the so-called lipid storage droplet (LD). Although ubiquitous, LDs share a simple structure composed of a hydrophobic core that harbors the storage lipids, which is shielded by a droplet-specific phospholipid monolayer to which proteins are attached. The current model of LD biogenesis involves an incorporation of the lipid core into the membrane leaflets of the endoplasmic reticulum (ER) followed by a subsequent budding-like maturation of a LD, which ultimately pinches off. Once released, LD volume can increase by localized lipogenesis or fusion of existing droplets. Storage lipids are re-mobilized enzymatically by lipase activity. Lipase regulation in the adipocyte is heavily studied and involves multiple components including catecholamine signaling, the LD-associated proteins Perilipin and comparative gene identification-58 (CGI-58) and at least two lipases named hormone sensitive lipase (HSL) and adipocyte triglyceride lipase (ATGL). LD regulation outside of the adipocyte is poorly understood and only few components are known. However, there is an urgent need to learn more about ectopic fat depots as mislocalized storage of lipids, for example in the liver or muscle, is an eminent health problem associated with insulin resistance or the metabolic syndrome. We developed a laser-scanning cytometer assay to enable 1,536-well screening and combined the results of the small molecules screen with an RNAi database based on lipid storage.
We dispensed 4 uL of cells at 1.25 x 10^6 cells/mL into LoBase Aurora COC 1,536-well plates (black walled, clear bottom) with a bottle-valve solenoid-based dispenser (Aurora) to obtain 5,000 cells/well. Triacsin C (Sigma-Aldrich T-4540), an inhibitor of long-chain fatty acyl CoA synthetase that blocks synthesis of triglycerides, was used as a positive control for lipid under-storage. A total of 23 nL of compound solution of different concentrations were transferred to the assay plates using a Kalypsys pin tool equipped with a 1,536-pin array containing 10-nL slotted pins (FP1S10, 0.457-mm diameter, 50.8 mm long; V&P Scientific). One microliter of oleic acid (400 uM) was added, and the plate was lidded with stainless steel rubber gasket lined lids containing pinholes. After 18-24 h incubation at 24 degree Celsius and 95% humidity, 4 uL of the dyes BODIPY 493/503 (Molecular Probes) and the Cell Tracker Red CMTPX dye (Molecular Probes) were added to the wells to stain lipid droplets and enumerate cell number, respectively. Fluorescence was detected by excitation of the fluorophores with a 488-nm laser on an Acumen Explorer (TTP Lab Tech). The total intensity in channel 1 (500-530 nm) reflected lipid droplet accumulation. Cells were detected using channel 3 (575- 640 nm) with 5-um width and 100-um depth filters. The ratio of the total intensity in PMT channel 1 over total intensity of channel 3 was also calculated. Percent activity was computed relative to an internal control (100% inhibited lipid droplet deposition due to the presence of 20 uM Triacsin C), which was added to 32 wells/plate.

Row | SMILES | Potency | activity change, negative = lipid storage inhibition
1 | O=C(Nc1cccc2c1cnn2-c1ccc(F)cc1)c1ccccn1 | inconclusive: 99.6 nM [activator, full curve] | 
2 | CC1=C(C(=O)NC2CCCc3c2cnn3-c2ccc(F)cc2F)OCCO1 (stereo not given) | active: 15.8 nM | 
3 | O=C(Cc1cccs1)Nc1nc(-c2ccc(F)cc2)cs1 | inconclusive: 8880 nM [activator, full curve, poor fit] | 
4 | C[C@@H](NCCCc1cccc(C(F)(F)F)c1)c1cccc2ccccc12 |  | inconclusive: -103% [activator]
5 | COc1ccc(NC(=S)N2CCN(c3cccc(Cl)c3)CC2)c(OC)c1 | inactive | 
6 | COc1ccc(CCNC(=O)c2cc3sccc3n2Cc2ccccc2)cc1OC | active: 315 nM | 
7 | COc1ccc(OC)c(NC(=S)N2CCN(c3ccc(Cl)cc3)CC2)c1 | inconclusive: 35300 nM [falling, single point] | 
8 | COc1ccc(Cl)cc1NC(=S)N1CCN(c2ccccc2F)CC1 | inconclusive: 4450 nM [activator, full curve, poor fit] | 
9 | CCOc1ccc(CCNC(=O)c2csc(Br)n2)cc1OCC | inconclusive: 139 nM [activator, full curve, poor fit] | 
10 | COc1ccc(-c2csc(NC(=O)CSc3nnc(NC4CC4)s3)n2)cc1OC | inactive | 
11 | O=C(NC1CCCCC1)NC1(C(=O)N2CCCC2)CCCCC1 | inactive | 
12 | O=C(NC1CCCc2c1cnn2-c1ccccc1F)c1ccc2ncccc2c1 (stereo not given) | active: 2230 nM | 
13 | Cc1nc(SC(C)C(=O)Nc2nc(-c3ccccc3)cs2)n(CC2CCCO2)c1C (stereo not given) | active: 4450 nM | 
14 | Cc1cc(SCc2sc(-c3ccc(C(F)(F)F)cc3)nc2C)ccc1OCC(=O)O | inactive | 
15 | Cc1cc(NC(=O)Nc2ccc(N(C)C)cc2)c2cc(F)cc(F)c2n1 | inconclusive: 396 nM [activator, full curve, poor fit] | 
16 | CCOc1ccc(CCNC(=O)c2cc3sccc3[nH]2)cc1OCC | active: 7910 nM | 
17 | CCOc1ccc(CCNC(=O)C2CCCCC2)cc1OCC | inconclusive: 2500 nM [activator, full curve, poor fit] | 
18 | O=C(Cc1cccs1)Nc1nc(-c2ccc3c(c2)CCC3)cs1 | inactive | 
19 | CC(=O)NCc1ccc(-c2csc(NC(=O)Cc3cccs3)n2)cc1 | inactive | 
20 | Cc1ccc(-c2cnc(SCC(=O)Nc3nc(C)cs3)n2Cc2ccco2)cc1 | inconclusive: 5600 nM [activator, partial curve, poor fit] | 

Grouped by structure: those above containing a CF3 group (two)
Row | SMILES | Potency | activity change, negative = lipid storage inhibition
4 | C[C@@H](NCCCc1cccc(C(F)(F)F)c1)c1cccc2ccccc12 |  | inconclusive: -103% [activator]
14 | Cc1cc(SCc2sc(-c3ccc(C(F)(F)F)cc3)nc2C)ccc1OCC(=O)O | inactive | 

(further entries)

Row | SMILES | Potency | activity change, negative = lipid storage inhibition
21 | CCOc1ccc(CCNC(C)=O)cc1OCC | inactive | 
22 | COc1ccc(-c2cnc(SCC(=O)Nc3nc(C)cs3)n2-c2ccccc2)cc1 | inconclusive: 223 nM [activator, full curve] | 
23 | CCOC(=O)C1CCN(C(C)C(=O)NC(=O)NC2CCCCC2)CC1 (stereo not given) | inactive | 
24 | CCc1sc(NC(=O)Cc2cccs2)nc1-c1ccccc1 | inconclusive: 7050 nM [activator, partial curve, poor fit] | 
25 | O=C(NC1CCCc2c1cnn2-c1ccc(F)cc1F)C1CCCCN1 (stereo not given) | inactive | 
26 | Cc1cn(-c2cc(NC(=O)c3ccc(C)c(Nc4nccc(-c5cccnc5)n4)c3)cc(C(F)(F)F)c2)cn1 |  | inconclusive: -69.8% [activator]
27 | O=C(Nc1ccccc1-c1cn2c(CN3CCNCC3)csc2n1)c1cnc2ccccc2n1 |  | inconclusive: -102% [activator]
28 | O=C(NC1CCCc2c1cnn2-c1cc(F)cc(F)c1)c1cccc2nccnc12 (stereo not given) | active: 3450 nM | 
29 | O=C(NCCc1ccc2c(c1)OCO2)c1cc2sccc2[nH]1 | inconclusive: 1140 nM [activator, partial curve] | 
30 | O=C(NC1CCCc2c1cnn2-c1ccc(F)cc1F)c1cccc(F)c1F (stereo not given) | active: 315 nM | 
31 | CCOc1ccc(CCNC(=O)C2COc3ccccc3O2)cc1OCC (stereo not given) | active: 11200 nM | 
32 | CCOc1ccc(CCNC(=O)c2ccc3[nH]ccc3c2)cc1OCC | inconclusive: 474 nM [activator, full curve, poor fit] | 
33 | O=C(O)c1cccc(-c2noc(-c3ccccc3F)n2)c1 | inconclusive: 560 nM [activator, full curve, poor fit] | 
34 | CC(NCc1ccc2c(c1)nc(NC(=O)c1ccc(-c3cn[nH]c3)s1)n2CC(C)(C)O)C(C)(C)C (stereo not given) | inconclusive: 158 nM [activator, full curve] | 
35 | COc1cc(Nc2ncc(F)c(Nc3ccc4c(n3)NC(=O)C(C)(C)O4)n2)cc(OC)c1OC | inconclusive: 177 nM [activator, full curve, poor fit] | 
36 | O=C(NC1CCCc2c1cnn2-c1ccc(F)cc1F)C1CCCCC1 (stereo not given) | active: 4990 nM | 
37 | O=C(Nc1cccc2nn(-c3ccc(F)cc3)cc12)c1ccccn1 | inconclusive: 315 nM [activator, full curve] | 
38 | O=C(NCCc1ccc(O)c(O)c1)c1cc2sccc2n1Cc1ccccc1 | inactive | 
39 | CN(C)CC(=O)NC1CCCc2c1cnn2-c1ccc(F)cc1F (stereo not given) | inactive | 
40 | CN(C)Cc1ccc(-c2nc3cccc4c3n2CCNC4=O)cc1 | inconclusive: 705 nM [activator, full curve, poor fit] | 
